This is one part of the list.
Compound: CC1=C(C=C(C=C1)NC(=O)C2=CC(=CC=C2)C(C)(C)C#N)NC3=CC4=C(C=C3)N=CN(C4=O)C
Assay: log2 fold change, soluble protein after heating vs DMSO (PISA); higher = thermal stabilisation; K562 cells, 10 uM, 30 min; active = over 0.2 and 3.5 SD of the protein, either way, in both replicates (recomputed)
Outline: (§1)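 K562 cells (2×10^6 cells/mL) were treated with 10 μM compound for 30 min, and aliquots were heated for 3 min over 48°C-58°C. Pooled aliquots were extracted in PBS with 0.5% NP-40 at 4°C, and the supernatant after 21,000xg for 90 min was measured by TMTpro 16plex LC-MS/MS with channel sums equalised. Reported thermal stability, relative to control samples and from duplicates, is a log2 fold change.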

Protein sequences, listed by entry. Tags and fused reporters are not part of them. Lines headed by an entry give the natural chain unless they say otherwise; changes in a name come on top.
UniProt Q8TDL5: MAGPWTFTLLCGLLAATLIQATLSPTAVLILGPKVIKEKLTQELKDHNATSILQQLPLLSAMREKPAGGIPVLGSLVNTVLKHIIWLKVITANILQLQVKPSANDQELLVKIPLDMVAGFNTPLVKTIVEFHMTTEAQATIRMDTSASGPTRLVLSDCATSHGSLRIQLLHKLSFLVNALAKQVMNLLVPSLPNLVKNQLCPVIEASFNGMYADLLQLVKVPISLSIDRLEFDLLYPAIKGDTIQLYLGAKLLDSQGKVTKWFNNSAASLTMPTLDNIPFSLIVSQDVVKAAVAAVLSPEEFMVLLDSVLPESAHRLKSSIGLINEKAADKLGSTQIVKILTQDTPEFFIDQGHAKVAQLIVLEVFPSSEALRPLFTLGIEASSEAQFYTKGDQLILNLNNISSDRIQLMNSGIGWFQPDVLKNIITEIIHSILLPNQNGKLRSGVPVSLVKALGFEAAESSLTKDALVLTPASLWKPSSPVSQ
UniProt Q9H7T9: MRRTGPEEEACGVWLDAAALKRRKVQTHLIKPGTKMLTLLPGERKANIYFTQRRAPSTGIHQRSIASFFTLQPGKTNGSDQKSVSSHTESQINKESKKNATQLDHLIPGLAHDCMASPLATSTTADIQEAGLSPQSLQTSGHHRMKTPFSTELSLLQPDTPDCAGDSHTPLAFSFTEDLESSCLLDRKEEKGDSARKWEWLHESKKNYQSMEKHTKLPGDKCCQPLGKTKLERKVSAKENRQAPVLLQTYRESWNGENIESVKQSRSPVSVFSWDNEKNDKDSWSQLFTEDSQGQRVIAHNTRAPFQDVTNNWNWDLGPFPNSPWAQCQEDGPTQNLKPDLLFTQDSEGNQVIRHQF
UniProt Q9NYM9: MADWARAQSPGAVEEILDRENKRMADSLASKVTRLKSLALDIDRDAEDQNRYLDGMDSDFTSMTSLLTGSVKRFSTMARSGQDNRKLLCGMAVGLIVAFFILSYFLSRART
UniProt O60909: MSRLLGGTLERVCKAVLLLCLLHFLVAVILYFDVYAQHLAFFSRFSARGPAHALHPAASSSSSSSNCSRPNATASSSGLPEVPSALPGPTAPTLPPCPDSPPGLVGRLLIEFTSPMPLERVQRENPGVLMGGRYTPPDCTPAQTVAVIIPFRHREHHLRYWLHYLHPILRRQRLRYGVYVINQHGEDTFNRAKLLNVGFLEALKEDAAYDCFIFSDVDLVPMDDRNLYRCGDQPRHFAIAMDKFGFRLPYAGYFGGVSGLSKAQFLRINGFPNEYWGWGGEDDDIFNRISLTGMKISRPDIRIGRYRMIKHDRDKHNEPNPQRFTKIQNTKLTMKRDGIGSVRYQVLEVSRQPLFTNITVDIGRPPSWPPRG
UniProt Q4VC05, whole entry, looked up: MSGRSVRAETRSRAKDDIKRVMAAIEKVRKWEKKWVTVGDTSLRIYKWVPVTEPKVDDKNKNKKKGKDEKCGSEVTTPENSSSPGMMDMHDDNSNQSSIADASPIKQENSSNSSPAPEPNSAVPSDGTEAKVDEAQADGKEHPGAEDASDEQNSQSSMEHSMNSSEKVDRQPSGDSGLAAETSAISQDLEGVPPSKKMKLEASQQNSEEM
UniProt Q9NWD9: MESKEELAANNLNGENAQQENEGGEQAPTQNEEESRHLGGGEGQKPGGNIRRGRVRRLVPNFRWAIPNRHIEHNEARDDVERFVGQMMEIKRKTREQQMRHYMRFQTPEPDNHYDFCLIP
UniProt O60513: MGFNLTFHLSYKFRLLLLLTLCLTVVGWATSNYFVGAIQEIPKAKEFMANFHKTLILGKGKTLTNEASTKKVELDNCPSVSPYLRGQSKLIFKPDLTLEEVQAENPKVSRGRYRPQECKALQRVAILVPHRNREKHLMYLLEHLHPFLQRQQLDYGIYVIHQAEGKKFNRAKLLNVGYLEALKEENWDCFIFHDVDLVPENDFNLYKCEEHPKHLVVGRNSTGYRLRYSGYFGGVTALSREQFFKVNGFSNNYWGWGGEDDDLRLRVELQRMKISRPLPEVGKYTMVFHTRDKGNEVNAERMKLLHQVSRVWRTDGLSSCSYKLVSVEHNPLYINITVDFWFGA
UniProt Q93088: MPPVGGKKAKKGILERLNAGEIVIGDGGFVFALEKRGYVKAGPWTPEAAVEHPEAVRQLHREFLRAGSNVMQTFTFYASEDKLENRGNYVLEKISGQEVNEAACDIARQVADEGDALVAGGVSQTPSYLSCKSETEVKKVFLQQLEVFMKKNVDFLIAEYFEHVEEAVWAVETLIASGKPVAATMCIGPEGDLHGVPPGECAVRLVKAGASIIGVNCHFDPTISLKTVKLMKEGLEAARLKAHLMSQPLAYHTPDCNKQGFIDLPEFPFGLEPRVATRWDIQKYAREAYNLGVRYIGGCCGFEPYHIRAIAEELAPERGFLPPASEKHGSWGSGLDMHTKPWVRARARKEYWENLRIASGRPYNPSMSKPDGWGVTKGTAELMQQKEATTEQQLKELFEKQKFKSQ
UniProt O43521, whole entry, looked up: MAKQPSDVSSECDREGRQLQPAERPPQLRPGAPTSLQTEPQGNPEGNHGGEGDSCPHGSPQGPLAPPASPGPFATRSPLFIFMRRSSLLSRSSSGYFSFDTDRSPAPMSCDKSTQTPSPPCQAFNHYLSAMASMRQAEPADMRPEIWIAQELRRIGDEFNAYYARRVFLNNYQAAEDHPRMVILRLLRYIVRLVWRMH
UniProt Q9H2G9: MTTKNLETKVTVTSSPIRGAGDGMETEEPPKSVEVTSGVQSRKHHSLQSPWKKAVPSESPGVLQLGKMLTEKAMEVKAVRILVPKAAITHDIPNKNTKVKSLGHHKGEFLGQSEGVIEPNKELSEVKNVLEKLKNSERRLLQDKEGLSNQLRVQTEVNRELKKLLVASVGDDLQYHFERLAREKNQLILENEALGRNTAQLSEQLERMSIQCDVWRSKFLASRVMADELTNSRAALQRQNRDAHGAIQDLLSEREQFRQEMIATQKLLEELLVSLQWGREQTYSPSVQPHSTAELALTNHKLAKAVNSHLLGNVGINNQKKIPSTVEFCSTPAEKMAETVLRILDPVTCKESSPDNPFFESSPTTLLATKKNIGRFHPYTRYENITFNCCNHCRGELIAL
UniProt Q96IK1: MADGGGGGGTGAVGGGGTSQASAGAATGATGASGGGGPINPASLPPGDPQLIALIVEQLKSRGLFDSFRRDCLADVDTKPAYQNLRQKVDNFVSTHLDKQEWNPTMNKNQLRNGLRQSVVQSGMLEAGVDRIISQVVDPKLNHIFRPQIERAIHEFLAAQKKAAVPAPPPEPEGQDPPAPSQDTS
UniProt Q96FH0: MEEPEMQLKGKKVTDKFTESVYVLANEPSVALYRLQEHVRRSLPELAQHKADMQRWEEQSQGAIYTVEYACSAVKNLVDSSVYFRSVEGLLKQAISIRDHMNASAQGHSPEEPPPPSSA
UniProt Q8TBE0: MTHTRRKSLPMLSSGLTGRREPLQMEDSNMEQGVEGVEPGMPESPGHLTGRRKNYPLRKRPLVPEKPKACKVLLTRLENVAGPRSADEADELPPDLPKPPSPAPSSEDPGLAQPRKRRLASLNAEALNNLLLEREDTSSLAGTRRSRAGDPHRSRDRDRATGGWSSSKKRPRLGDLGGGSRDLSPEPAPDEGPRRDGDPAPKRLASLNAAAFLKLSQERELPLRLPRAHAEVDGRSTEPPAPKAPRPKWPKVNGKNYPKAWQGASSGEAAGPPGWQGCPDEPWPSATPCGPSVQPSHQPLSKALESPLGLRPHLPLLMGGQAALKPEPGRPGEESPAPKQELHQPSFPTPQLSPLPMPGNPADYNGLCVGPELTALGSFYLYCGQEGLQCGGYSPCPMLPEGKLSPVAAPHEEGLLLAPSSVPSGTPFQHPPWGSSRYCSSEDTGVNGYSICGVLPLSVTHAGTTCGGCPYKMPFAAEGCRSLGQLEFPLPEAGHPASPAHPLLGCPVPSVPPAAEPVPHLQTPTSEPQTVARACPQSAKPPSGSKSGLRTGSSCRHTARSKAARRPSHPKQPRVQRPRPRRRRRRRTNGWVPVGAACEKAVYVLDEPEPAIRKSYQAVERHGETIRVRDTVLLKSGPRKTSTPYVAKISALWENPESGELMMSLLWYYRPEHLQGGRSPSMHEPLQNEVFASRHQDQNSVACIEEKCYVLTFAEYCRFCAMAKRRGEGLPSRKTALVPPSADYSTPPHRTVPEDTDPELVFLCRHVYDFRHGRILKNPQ
UniProt Q9NQS1: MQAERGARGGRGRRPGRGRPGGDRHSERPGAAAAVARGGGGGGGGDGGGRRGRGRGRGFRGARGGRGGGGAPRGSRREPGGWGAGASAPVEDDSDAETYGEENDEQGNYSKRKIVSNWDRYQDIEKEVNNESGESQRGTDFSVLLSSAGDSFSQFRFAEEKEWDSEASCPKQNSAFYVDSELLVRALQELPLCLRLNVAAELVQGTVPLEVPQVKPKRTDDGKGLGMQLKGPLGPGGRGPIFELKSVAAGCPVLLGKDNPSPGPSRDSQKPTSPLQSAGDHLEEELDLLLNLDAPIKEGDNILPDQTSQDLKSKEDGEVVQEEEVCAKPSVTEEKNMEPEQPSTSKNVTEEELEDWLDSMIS
UniProt Q9NZS9: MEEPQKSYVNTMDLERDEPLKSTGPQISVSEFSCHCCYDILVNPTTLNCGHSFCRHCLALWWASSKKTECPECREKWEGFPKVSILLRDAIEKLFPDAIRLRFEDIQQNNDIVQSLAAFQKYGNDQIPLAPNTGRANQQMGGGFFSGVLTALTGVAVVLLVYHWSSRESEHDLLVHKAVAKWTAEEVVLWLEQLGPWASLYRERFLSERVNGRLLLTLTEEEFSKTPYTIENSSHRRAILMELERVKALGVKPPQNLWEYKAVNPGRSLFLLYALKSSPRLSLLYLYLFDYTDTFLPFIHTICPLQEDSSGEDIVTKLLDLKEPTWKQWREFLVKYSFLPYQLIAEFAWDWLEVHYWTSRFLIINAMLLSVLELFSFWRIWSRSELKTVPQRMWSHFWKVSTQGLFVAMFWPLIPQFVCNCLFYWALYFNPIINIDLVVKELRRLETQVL
UniProt Q5T6C5: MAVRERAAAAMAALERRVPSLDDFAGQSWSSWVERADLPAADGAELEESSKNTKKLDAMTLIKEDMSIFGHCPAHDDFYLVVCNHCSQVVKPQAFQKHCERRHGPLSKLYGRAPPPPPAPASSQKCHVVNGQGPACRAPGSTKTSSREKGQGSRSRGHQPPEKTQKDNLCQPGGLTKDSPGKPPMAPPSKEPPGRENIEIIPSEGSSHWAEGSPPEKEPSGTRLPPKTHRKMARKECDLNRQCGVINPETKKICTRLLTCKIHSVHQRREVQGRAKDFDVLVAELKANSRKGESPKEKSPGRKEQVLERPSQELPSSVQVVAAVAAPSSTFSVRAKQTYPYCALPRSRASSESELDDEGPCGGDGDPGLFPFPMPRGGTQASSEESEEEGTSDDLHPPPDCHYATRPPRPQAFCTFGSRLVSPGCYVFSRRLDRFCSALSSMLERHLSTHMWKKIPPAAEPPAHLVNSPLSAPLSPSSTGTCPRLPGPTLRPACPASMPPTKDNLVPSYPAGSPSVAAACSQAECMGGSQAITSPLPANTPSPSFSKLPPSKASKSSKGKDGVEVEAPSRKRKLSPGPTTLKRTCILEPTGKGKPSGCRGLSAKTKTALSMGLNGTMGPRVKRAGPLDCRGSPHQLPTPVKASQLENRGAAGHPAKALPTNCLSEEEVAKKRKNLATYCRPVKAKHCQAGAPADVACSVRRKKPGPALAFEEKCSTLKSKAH
UniProt Q9HCU9: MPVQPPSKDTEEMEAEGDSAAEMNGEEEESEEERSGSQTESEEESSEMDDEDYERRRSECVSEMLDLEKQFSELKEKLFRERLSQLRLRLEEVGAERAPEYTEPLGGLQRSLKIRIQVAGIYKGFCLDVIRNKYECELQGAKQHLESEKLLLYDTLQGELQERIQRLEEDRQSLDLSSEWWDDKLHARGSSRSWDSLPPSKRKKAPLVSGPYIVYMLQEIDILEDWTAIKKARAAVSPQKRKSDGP
UniProt Q96GD4, whole entry, looked up: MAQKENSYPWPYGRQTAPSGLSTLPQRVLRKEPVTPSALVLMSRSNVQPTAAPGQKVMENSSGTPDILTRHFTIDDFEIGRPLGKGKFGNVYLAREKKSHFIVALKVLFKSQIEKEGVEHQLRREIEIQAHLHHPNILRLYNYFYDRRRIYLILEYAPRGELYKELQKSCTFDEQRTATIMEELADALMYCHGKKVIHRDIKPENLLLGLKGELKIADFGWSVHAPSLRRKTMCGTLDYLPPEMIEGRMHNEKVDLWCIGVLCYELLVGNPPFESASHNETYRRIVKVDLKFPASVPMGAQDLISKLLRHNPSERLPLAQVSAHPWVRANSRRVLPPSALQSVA
UniProt Q8IXM2, whole entry, looked up: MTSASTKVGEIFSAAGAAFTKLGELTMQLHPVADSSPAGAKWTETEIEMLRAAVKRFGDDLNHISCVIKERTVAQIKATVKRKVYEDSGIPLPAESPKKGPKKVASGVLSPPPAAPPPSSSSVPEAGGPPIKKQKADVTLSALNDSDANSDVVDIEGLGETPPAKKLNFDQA

Row | Target | log2 fold change
1 | BPIFB1 (UniProt Q8TDL5) | inactive: 0.054
2 | BORA (UniProt Q6PGQ7) | inactive: -0.281
3 | AUNIP isoform 2 (UniProt Q9H7T9) | inactive: 0.113
4 | BET1L (UniProt Q9NYM9) | inactive: 0.034
5 | B4GALT2 isoform 3 (UniProt O60909) | inactive: -0.002
6 | BCL7A isoform 2 (UniProt Q4VC05) | inactive: -0.41
7 | AURKAIP1 (UniProt Q9NWT8) | inactive: -0.06
8 | BEX4 (UniProt Q9NWD9) | inactive: -0.131
9 | B4GALT4 (UniProt O60513) | inactive: -0.007
10 | BHMT (UniProt Q93088) | inactive: -0.034
11 | BAIAP2 isoform 4 (UniProt Q9UQB8) | inactive: 0.034
12 | ATXN2 (UniProt F8W0B5) | inactive: 0.105
13 | BCL2L11 (UniProt O43521) | inactive: -0.1
14 | BCL7C isoform 2 (UniProt Q8WUZ0) | inactive: 0.066
15 | BLZF1 (UniProt Q9H2G9) | inactive: 0.048
16 | B3GNT8 (UniProt Q7Z7M8) | inactive: 0.232

Compound: CC1=C(C=C(C=C1)NC(=O)C2=CC(=CC=C2)N(C)C)NC(=O)C3=CC=C(C=C3)O
Assay: as above
Outline: as §1

Row | Target | log2 fold change
17 | BOD1 (UniProt Q96IK1) | inactive: -0.15
18 | BORCS8 (UniProt Q96FH0) | inactive: -0.026
19 | BET1L (UniProt Q9NYM9) | inactive: -0.023
20 | AURKAIP1 (UniProt Q9NWT8) | inactive: -0.039
21 | B4GALT4 (UniProt O60513) | inactive: 0.012
22 | ATXN2 (UniProt F8W0B5) | inactive: -0.079
23 | BCL2L11 (UniProt O43521) | inactive: 0.055
24 | AZIN1 (UniProt O14977) | inactive: 0.003

Compound: CC1=CC=C(C=C1)SC2=C3C=C(SC3=CN=C2)C(=O)N
Assay: as above
Outline: as §1

Row | Target | log2 fold change
25 | BAHD1 (UniProt Q8TBE0) | inactive: 0
26 | AUNIP isoform 2 (UniProt Q9H7T9) | inactive: 0.101
27 | BET1L (UniProt Q9NYM9) | inactive: 0.032
28 | BCL7A isoform 2 (UniProt Q4VC05) | inactive: -0.098
29 | AVEN (UniProt Q9NQS1) | inactive: -0.033
30 | BFAR (UniProt Q9NZS9) | inactive: 0.044

Compound: CCCCN(Cc1ccc(C(=O)NO)cc1)C(=O)Nc1ccccc1 [Nexturastat A]
Assay: as above
Outline: as §1

Row | Target | log2 fold change
31 | BORA (UniProt Q6PGQ7) | inactive: 0.425
32 | BET1L (UniProt Q9NYM9) | inactive: 0.115
33 | BCL7A isoform 2 (UniProt Q4VC05) | inactive: -0.041
34 | AVEN (UniProt Q9NQS1) | inactive: -0.023
35 | AURKAIP1 (UniProt Q9NWT8) | inactive: 0.315
36 | BCL2L11 (UniProt O43521) | inactive: -0.013
37 | BFAR (UniProt Q9NZS9) | inactive: 0.025
38 | ATXN7L2 (UniProt Q5T6C5) | inactive: -0.065
39 | BCL7C isoform 2 (UniProt Q8WUZ0) | inactive: 0.122
40 | BRMS1 (UniProt Q9HCU9) | active: 0.512

Compound: CCCS(=O)(=O)Nc1ccc(F)c(C(=O)c2c[nH]c3ncc(-c4ccc(Cl)cc4)cc23)c1F [vemurafenib]
Assay: as above
Outline: as §1

Row | Target | log2 fold change
41 | AUNIP isoform 2 (UniProt Q9H7T9) | inactive: 0.081
42 | BET1L (UniProt Q9NYM9) | inactive: 0.049
43 | AVEN (UniProt Q9NQS1) | inactive: 0.037
44 | AURKAIP1 (UniProt Q9NWT8) | inactive: -0.099
45 | AURKB isoform 5 (UniProt Q96GD4) | inactive: 0.157
46 | BCL2L11 (UniProt O43521) | inactive: 0.042
47 | BFAR (UniProt Q9NZS9) | inactive: -0.025
48 | AXIN1 (UniProt O15169) | inactive: 0.125
49 | BIN1 (UniProt O00499) | inactive: -0.049

Compound: CCCS(=O)(=O)Nc1ccc(F)c(C(=O)c2c[nH]c3ncc(Cl)cc23)c1F
Assay: as above
Outline: as §1

Row | Target | log2 fold change
50 | BAHD1 (UniProt Q8TBE0) | inactive: -0.013
51 | AUNIP isoform 2 (UniProt Q9H7T9) | inactive: 0.073
52 | BET1L (UniProt Q9NYM9) | inactive: -0.093
53 | BCL7A isoform 2 (UniProt Q4VC05) | inactive: 0.041
54 | AVEN (UniProt Q9NQS1) | inactive: -0.004
55 | BFAR (UniProt Q9NZS9) | inactive: 0.283

Compound: CCCc1cc(C)[nH]c(=O)c1CNC(=O)c1cc(-c2ccnc(N3CCN(C)CC3)c2)cc2c1cnn2C(C)C
Assay: as above
Outline: as §1

Row | Target | log2 fold change
56 | BAHD1 (UniProt Q8TBE0) | inactive: -0.174
57 | BOD1 (UniProt Q96IK1) | inactive: 0.052
58 | BET1L (UniProt Q9NYM9) | inactive: -0.021
59 | BCL7C (UniProt Q8WUZ0) | inactive: 0.075
60 | AURKAIP1 (UniProt Q9NWT8) | inactive: 0.082
61 | BEX4 (UniProt Q9NWD9) | inactive: -0.315
62 | ATXN2 (UniProt F8W0B5) | inactive: -0.137
63 | BCL2L11 (UniProt O43521) | inactive: -0.02
64 | BAP18 isoform 3 (UniProt Q8IXM2) | inactive: 0.005
65 | BNIP2 (UniProt H7C096) | inactive: -0.027
66 | BFAR (UniProt Q9NZS9) | inactive: -0.049
67 | BCL7C isoform 2 (UniProt Q8WUZ0) | inactive: -0.078
68 | BRMS1 (UniProt Q9HCU9) | inactive: 0.137
69 | BIN1 (UniProt O00499) | inactive: 0.105
